The results in this text go back to paper PMC7261193, “The ancillary N-terminal region of the yeast AP-1 transcription factor Yap8 contributes to its DNA binding specificity”.

By UniProt entry, the sequences of proteins in these tests, tags left out. Where a name states a change or a piece, a line headed by the entry shows the natural chain unless it says otherwise.
UniProt Q06596: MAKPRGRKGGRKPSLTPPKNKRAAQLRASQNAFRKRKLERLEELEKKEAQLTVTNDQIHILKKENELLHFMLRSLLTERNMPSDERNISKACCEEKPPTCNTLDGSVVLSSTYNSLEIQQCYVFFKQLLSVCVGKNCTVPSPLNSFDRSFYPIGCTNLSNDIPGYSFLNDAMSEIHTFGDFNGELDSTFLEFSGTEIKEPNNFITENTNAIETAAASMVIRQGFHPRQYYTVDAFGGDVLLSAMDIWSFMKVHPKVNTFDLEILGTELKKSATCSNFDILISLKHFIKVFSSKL

Changes are numbered by the printed parent chain. For at least one entry, the source does not settle the construct or the ends of the probe. For some assays here: No signal at the amounts used counts as a negative. For some assays here: At least one verdict was read from the data and is not stated in words by the source. For some assays here: Protein sequences can lack the tags named with them. For some assays here: A weaker result is weaker than the reference pair of the same experiment.

Assay in all cases: EMSA
(In general: A gel shift assay detects complexes by their altered migration in electrophoresis.)

In data set [1] the target is T1, GST-Yap8-R7A (Saccharomyces cerevisiae) (UniProt Q06596).
T1 sequence (looked up, limits assumed): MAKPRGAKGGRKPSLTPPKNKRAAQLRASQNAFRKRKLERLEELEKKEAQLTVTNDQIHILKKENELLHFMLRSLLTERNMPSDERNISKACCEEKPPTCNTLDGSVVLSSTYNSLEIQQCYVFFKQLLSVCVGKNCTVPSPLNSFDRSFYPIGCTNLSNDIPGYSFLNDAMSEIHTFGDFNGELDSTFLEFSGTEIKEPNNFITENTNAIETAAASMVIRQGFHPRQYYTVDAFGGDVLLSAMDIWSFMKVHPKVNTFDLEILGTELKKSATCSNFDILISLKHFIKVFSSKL
The note with it: Biotin EMSA: LightShift 1x buffer, 50 ng poly(dI-dC), 2.5% glycerol, 0.05% NP-40, 5 mM MgCl2, 20 fmol probe, RT 20 min. 32P EMSA: 10 mM Tris-HCl pH 8.0, 50 mM NaCl; recombinant protein; protein details: GST (N-term); label: 5' biotin (Fig 3A, 5, 8B).

The target in data set [2] is T2, GST-Yap8 WT (Saccharomyces cerevisiae) (UniProt Q06596).
T2 sequence (looked up, limits assumed): T1 sequence (looked up, limits assumed) with A7R
As to conditions: Biotin EMSA: LightShift 1x buffer, 50 ng poly(dI-dC), 2.5% glycerol, 0.05% NP-40, 5 mM MgCl2, 20 fmol probe, RT 20 min. 32P EMSA: 10 mM Tris-HCl pH 8.0, 50 mM NaCl, recombinant protein, protein details: GST (N-term).

Data set [3] addresses T3, GST-Yap8-R7K (Saccharomyces cerevisiae) (UniProt Q06596).
T3 sequence (looked up, limits assumed): T1 sequence (looked up, limits assumed) with A7K
The note with it: Biotin EMSA: LightShift 1x buffer, 50 ng poly(dI-dC), 2.5% glycerol, 0.05% NP-40, 5 mM MgCl2, 20 fmol probe, RT 20 min. 32P EMSA: 10 mM Tris-HCl pH 8.0, 50 mM NaCl; recombinant protein; protein details: GST (N-term); label: 5' biotin (Fig 3A, 5, 8B).

Data set [4] concerns the target T4, GST-Yap8-R11A (Saccharomyces cerevisiae) (UniProt Q06596).
T4 sequence (looked up, limits assumed): T1 sequence (looked up, limits assumed) with A7R, R11A
As to conditions: Biotin EMSA: LightShift 1x buffer, 50 ng poly(dI-dC), 2.5% glycerol, 0.05% NP-40, 5 mM MgCl2, 20 fmol probe, RT 20 min. 32P EMSA: 10 mM Tris-HCl pH 8.0, 50 mM NaCl; recombinant protein; protein details: GST (N-term); label: 5' biotin (Fig 3A, 5, 8B).

Data set [5] addresses GST-Yap8-8aa N20Q,A23T,L26N,S29A,N31R,K35E,L37E,E39R (Saccharomyces cerevisiae) (UniProt Q06596). As to conditions: Biotin EMSA: LightShift 1x buffer, 50 ng poly(dI-dC), 2.5% glycerol, 0.05% NP-40, 5 mM MgCl2, 20 fmol probe, RT 20 min. 32P EMSA: 10 mM Tris-HCl pH 8.0, 50 mM NaCl, recombinant protein, protein details: GST (N-term).
In data set [6] the target is GST-Yap8-7aa A23T,L26N,S29A,N31R,K35E,L37E,E39R (Saccharomyces cerevisiae) (UniProt Q06596). As to conditions: Biotin EMSA: LightShift 1x buffer, 50 ng poly(dI-dC), 2.5% glycerol, 0.05% NP-40, 5 mM MgCl2, 20 fmol probe, RT 20 min. 32P EMSA: 10 mM Tris-HCl pH 8.0, 50 mM NaCl, recombinant protein, protein details: GST (N-term).
In data set [7] the target is T5, GST-Yap8-N20A (Saccharomyces cerevisiae) (UniProt Q06596).
T5 sequence (looked up, limits assumed): T1 sequence (looked up, limits assumed) with A7R, N20A
The note with it: Biotin EMSA: LightShift 1x buffer, 50 ng poly(dI-dC), 2.5% glycerol, 0.05% NP-40, 5 mM MgCl2, 20 fmol probe, RT 20 min. 32P EMSA: 10 mM Tris-HCl pH 8.0, 50 mM NaCl, recombinant protein, protein details: GST (N-term).

Data set [8] addresses T6, GST-Yap8-Q25A (Saccharomyces cerevisiae) (UniProt Q06596).
T6 sequence (looked up, limits assumed): T1 sequence (looked up, limits assumed) with A7R, Q25A
As to conditions: Biotin EMSA: LightShift 1x buffer, 50 ng poly(dI-dC), 2.5% glycerol, 0.05% NP-40, 5 mM MgCl2, 20 fmol probe, RT 20 min. 32P EMSA: 10 mM Tris-HCl pH 8.0, 50 mM NaCl; recombinant protein; protein details: GST (N-term); label: 5' biotin (Fig 3A, 5, 8B).

The target in data set [9] is T7, GST-Yap8-4aa A23T,L26N,S29A,N31R (Saccharomyces cerevisiae) (UniProt Q06596).
T7 sequence (looked up, limits assumed): T1 sequence (looked up, limits assumed) with A7R, A23T, L26N, S29A, N31R
As to conditions: 100 ng protein needed; Biotin EMSA: LightShift 1x buffer, 50 ng poly(dI-dC), 2.5% glycerol, 0.05% NP-40, 5 mM MgCl2, 20 fmol probe, RT 20 min. 32P EMSA: 10 mM Tris-HCl pH 8.0, 50 mM NaCl; recombinant protein; protein details: GST (N-term); label: 32P 5'.

In data set [10] the target is T8, GST-Yap8-N20Q (Saccharomyces cerevisiae) (UniProt Q06596).
T8 sequence (looked up, limits assumed): T1 sequence (looked up, limits assumed) with A7R, N20Q
The note with it: no stable binding; Biotin EMSA: LightShift 1x buffer, 50 ng poly(dI-dC), 2.5% glycerol, 0.05% NP-40, 5 mM MgCl2, 20 fmol probe, RT 20 min. 32P EMSA: 10 mM Tris-HCl pH 8.0, 50 mM NaCl; recombinant protein; protein details: GST (N-term); label: 32P 5'.

Where [11] appears, read: label: 5' biotin (Fig 3A, 5, 8B).
The mark [12] stands for this setting: 100 ng protein needed, label: 32P 5'.
The mark [13] stands for this setting: no stable binding, label: 32P 5'.

In the case of “TCTTAATTATCTTTTTGTTTGATTAATAATCAACTTTAGCGGCAACGCTCC (double strand) [ACR3short (WT)]”, the binding result is given as “binds more weakly” in [1]; “binds” in [2] (setting [11]); “binds more weakly” in [3]; “binds more weakly” in data set [4]; “binds more weakly” in [5] (setting [11]); “binds” in [6] (setting [11]). Besides, the binding result in data set [7] (setting [11]) and in data set [8] was “binds more weakly” in each case.

Regarding “TTCTGCCCAACGACGGCTGCCATTAGTCAGCATGGCGCGCACGTGACTACA (double strand) [GSH1short]”, the binding result in [5] (setting [12]), in data set [6] (setting [12]) and in [9] was “binds more weakly” each time.

With “TCTTAATTATCTTTTTGTTTGATTAATAATCAACTTTAGCGGCAACGCTCC (double strand) [ACR3short (32P)]”, the binding result in [2] (stable with 10 ng protein, label: 32P 5') is “binds”.

With “TCTTAATTATCTTTGCGGCTGATTAATAATCAACTTTAGCGGCAACGCTCC (double strand) [ACR3-M1]”, in data set [2] (label: 5' biotin), the binding result is recorded as “binds more weakly”.

As for “TCTTAATTATCTTTTTGTTTGATTAATAATCAACCGGAGCGGCAACGCTCC (double strand) [ACR3-M2]”, in data set [2] (label: 5' biotin), the binding result is on record as “binds more weakly”.

“TCTTAATTATCTTTGCGGCTGATTAATAATCAACCGGAGCGGCAACGCTCC (double strand) [ACR3-M3]”: in data set [2] (label: 5' biotin), the binding result is “binds more weakly”.

Regarding “ATTGTTTATACTCTTAGTAAAGGATGCTCCCTACAAGGTGGCTCTTTTCTTACTAAGCGCGTTCAGTTTC (double strand) [TRX2short]”, the binding result in data set [2] (setting [13]), in [10], in data set [5] (setting [13]), in [6] (setting [13]) and in data set [7] (setting [13]) was “no binding” in each case.
